Primary screen of a compound library

The chains behind the UniProt entries cited, without tags or fusion partners.
UniProt E9BF75, entry or part of it: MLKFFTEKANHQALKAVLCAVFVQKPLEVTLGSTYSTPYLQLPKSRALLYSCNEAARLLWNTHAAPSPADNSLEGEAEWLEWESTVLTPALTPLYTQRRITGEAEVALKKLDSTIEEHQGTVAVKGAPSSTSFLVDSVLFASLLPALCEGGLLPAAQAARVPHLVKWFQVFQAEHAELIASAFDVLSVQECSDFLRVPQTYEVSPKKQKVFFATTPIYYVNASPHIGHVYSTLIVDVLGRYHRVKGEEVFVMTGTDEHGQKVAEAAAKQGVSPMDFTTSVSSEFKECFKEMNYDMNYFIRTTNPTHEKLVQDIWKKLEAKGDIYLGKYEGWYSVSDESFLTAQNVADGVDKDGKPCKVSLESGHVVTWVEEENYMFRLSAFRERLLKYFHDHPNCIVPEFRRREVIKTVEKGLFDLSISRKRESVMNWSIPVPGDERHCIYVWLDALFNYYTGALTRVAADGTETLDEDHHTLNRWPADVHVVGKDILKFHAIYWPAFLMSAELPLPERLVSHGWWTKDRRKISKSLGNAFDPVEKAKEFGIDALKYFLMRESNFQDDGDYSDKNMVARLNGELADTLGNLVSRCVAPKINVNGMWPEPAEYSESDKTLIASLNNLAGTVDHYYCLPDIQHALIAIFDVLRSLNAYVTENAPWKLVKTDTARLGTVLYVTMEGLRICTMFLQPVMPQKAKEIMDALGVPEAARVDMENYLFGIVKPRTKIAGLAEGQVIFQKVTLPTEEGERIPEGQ

A: 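Methionyl-tRNA synthetase (putative), Leishmania donovani (UniProt E9BF75). Primary screen of methionyl-tRNA synthetase; the read-out is not stated. The test concentration is not given. Values are per cent inhibition. About 68,000 compounds were tested under these conditions; 0.035% (about 24) showed 50% or more at least once.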
B: 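Assay on Mycobacterium tuberculosis, filed only as a heat shock assay from Cornell; the read-out is not stated. The concentration is filed as 10 mM, unlikely as a test dose, so the dose is not known. Direction is inferred from retests: higher values go with stronger inhibition. Size under these conditions: about 69,000 compounds, about 930 of them at 50% or above in at least one test.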

Results are percentages, as filed.
The record does not define 0% and 100%; most values in the screen are far below 50% and negative numbers occur (in some assays of this library far below -100).
The compounds are a random part of those screened.
A dash means the value is not listed here; it may have been measured.

* Cc1nc2c(c(N3CCCOCC3)n1)CCN(c1nccs1)CC2 | A: 20.32%; B: 9.446%
* CC(=O)N1CCc2c(nc(N(C)C)nc2NC(C)Cc2cccs2)C1 (stereo not drawn) | A: 16.62%; B: 23.93%
* OC(COCc1ccccc1)CN1CCC(c2ccn[nH]2)CC1 (stereo not drawn) | A: 9.296%; B: -16.94%
* Cn1ccc(CN2CCCC23CCN(Cc2cccc(F)c2)CC3)n1 | A: 20.78%
* CCO[C@@H]1CCN(C(=O)c2ccc[nH]2)[C@@H]1Cc1cccnc1.O=C(O)C(F)(F)F | B: -0.08782%
* CCc1ccc(CN(C)c2ccc(-c3nc(COC)no3)cn2)nc1 | A: 10.7%; B: 22.04%
* Cl.O=C(c1ccccc1)N1CCC2(CC1)CNc1c(F)cccc12 | B: 9.544%
* Cc1cc(CN(C)Cc2cnc3c(c2)c(C)nn3C)no1 | A: -0.274%; B: -27.85%
* O=C(NCC1(O)COCCN(Cc2ccc(O)cc2)C1)c1cnccn1 (stereo not drawn) | A: 9.449%; B: 10.41%
* CC(C)CCn1ccc(NC2CCSC2)n1 (stereo not drawn) | A: 6.593%; B: 9.009%
* CCCN(CCC)c1ncc(S(=O)(=O)c2ccc(C)cc2)c(N)n1 | A: 6.434%; B: -1.164%
* CS(=O)(=O)c1cccc(S(=O)(=O)NC(=O)CCC2CCCCC2)c1 | A: 7.519%; B: -0.05419%
* O=C(NCCS(=O)(=O)N1CCN(c2ncccn2)CC1)C1CCCC1 | A: 4.802%; B: -21.71%
* CC(C)(C)OC(=O)N1CCC(NCc2cnn(C(C)(C)C)c2)CC1 | A: 15.04%; B: -38.29%
* O=C(O)C(F)(F)F.[H][C@]12CCN(c3ccc(C)nn3)C[C@@]1([H])CN(Cc1cc[nH]n1)C2 | B: -19.73%
* CSc1ccc(CN2CCn3nc(CNC(C)=O)cc3C2)cc1 | A: 12.13%; B: -8.857%
* Fc1cccc(-c2nnn3c2COC(CNc2ncccn2)C3)c1 (stereo not drawn) | A: 9.89%; B: -30.65%
* CN(C)C1COC2(CCN(Cc3ccncc3)CC2)C1 (stereo not drawn) | A: 1.307%; B: -34.19%
* O=C(c1cc(-c2cccs2)nc2ccccc12)N1CCN(CCO)CC1 | A: 1.229%; B: -24.55%
* COCCC1(CO)CCCN(Cc2ccc(C#N)cc2)C1 (stereo not drawn) | A: 10.65%; B: -16.01%
* CS(=O)(=O)CCCN1CCSCC1c1ccc(Cl)cc1 (stereo not drawn) | A: 16.11%; B: 7.057%
* Oc1nc(N2CCOCC2)nc2nccc(-c3ccccn3)c12 | A: 17%; B: -5.016%
* Cc1cc(C(=O)N2CCCC(n3ccnc3)C2)c(C)n1C1CC1 (stereo not drawn) | A: 18.03%; B: 10.98%
* CNC(=O)[C@@H]1C[C@H]2CN(C(=O)c3ccccn3)C[C@H]2N1C(C)C | A: -0.346%
* CCc1noc(CN2CCN(CC(O)c3ccccc3)CC2)n1 (stereo not drawn) | A: 4.871%; B: -8.844%
* Cc1cccc(CN2CC[C@H]3C[C@@H](C)O[C@@H]3C2)n1 | A: 2.667%
* CN(Cc1cccnc1)C1CC2(CCN(c3ncc(F)cn3)CC2)C1.O=C(O)C(F)(F)F.O=C(O)C(F)(F)F | B: -5.173%
* Cc1cnn(CC2CCCN2c2ncnc3ccccc23)c1 (stereo not drawn) | A: 4.712%; B: 10.58%
* CN1CCN(S(=O)(=O)c2cccc(F)c2)Cc2cccnc21 | A: 2.933%
* COc1ccc(OCCN2CCOCS2(=O)=O)cc1 | A: 8.681%; B: 13.28%
* O=C(Nc1cnccn1)[C@@H]1COC[C@H]2CN(C3CCC3)C[C@H]21 | A: 5.988%
* O=C(O)C(F)(F)F.O=C1CC2(CCN(CC3CCOC3)CC2)c2ccccc2N1CC1CC1 (stereo not drawn) | B: -3.307%
* Cc1ccc(C(NCC(=O)N2CCNC(=O)C2)c2ccccc2)cc1 (stereo not drawn) | A: 16.17%; B: -12.37%
* CN(C)Cc1cccc(-c2cccnc2C(=O)NCC2CC2)c1 | A: 11.05%; B: -8.115%
* CC(C)N(Cc1cccnc1)C(=O)CSc1ccc(C#N)cc1 | A: 17.33%; B: 23.63%
* O=C(O)C(F)(F)F.O=C(O)C(F)(F)F.O=C(O)c1c(-c2ccncc2)ncc2c1CCN(C1CCOC1)C2 (stereo not drawn) | B: -37.46%
* Cc1nn(C)c(C)c1NC(=O)CN1CCOC(CN(C)C)C1 (stereo not drawn) | A: 9.382%; B: 3.788%
* CCC(=O)Nc1ccc2c(ccn2CCOC)c1 | A: 7.833%; B: 7.134%
* CCSCCC(=O)Nc1ncn(Cc2cccnc2)n1 | A: 16.59%; B: 14.47%
* CCC(C)NC(=O)Cn1ncc2c1c(C)nn2CC (stereo not drawn) | A: 2.703%; B: 8.833%
* O=C(O)C(F)(F)F.[H][C@@]12CN(Cc3ccoc3)C[C@]1([H])C(=O)N(Cc1ccc(OC)cc1)C2 | B: -1.26%
* Cc1cc(CN2CCN(C(=O)CCc3cccs3)CC2)on1 | A: 8.629%; B: 39.79%

For reference, 3 entries once more:

SMILES	A	B
Cc1cc(C(=O)N2CCCC(n3ccnc3)C2)c(C)n1C1CC1 (stereo not drawn)	18.03%	10.98%
O=C(O)C(F)(F)F.O=C(O)C(F)(F)F.O=C(O)c1c(-c2ccncc2)ncc2c1CCN(C1CCOC1)C2 (stereo not drawn)	-	-37.46%
O=C(O)C(F)(F)F.[H][C@@]12CN(Cc3ccoc3)C[C@]1([H])C(=O)N(Cc1ccc(OC)cc1)C2	-	-1.26%

Source: ChEMBL document CHEMBL3988442, “University of Dundee, Small-Polar-MMV Screening Library” (2021).